Values quoted from earlier work in patent US10709666B2, “Carrier particles for dry powder formulations for inhalation” (CHIESI FARMACEUTICI S.P.A., priority 2017, dated 2020).
Some entries share one result that the patent states for a list of compounds.

Settings: heated at 50° C.

## O.OC[C@H]1O[C@@H](O[C@H]2[C@H](O)[C@@H](O)[C@@H](O)O[C@@H]2CO)[C@H](O)[C@@H](O)[C@H]1O [alpha-lactose monohydrate]
  concentration in water: 40-43 % w/v
